This note sets out measurements from doi:10.1101/2023.10.12.562039.

Results are given in words; binding and its absence hold for the method and conditions named. In cells and extracts the contact can be indirect. Here binding means that the protein was enriched with, or labelled near, the bait; the list need not be complete. Sequences can lack the tags named with a protein.

The assay addresses T1, GFP-AGO1 (ARGONAUTE1 fused to GFP, line pAGO1:GFP-AGO1 ago1-27) (Arabidopsis thaliana), O04379.
T1 chain: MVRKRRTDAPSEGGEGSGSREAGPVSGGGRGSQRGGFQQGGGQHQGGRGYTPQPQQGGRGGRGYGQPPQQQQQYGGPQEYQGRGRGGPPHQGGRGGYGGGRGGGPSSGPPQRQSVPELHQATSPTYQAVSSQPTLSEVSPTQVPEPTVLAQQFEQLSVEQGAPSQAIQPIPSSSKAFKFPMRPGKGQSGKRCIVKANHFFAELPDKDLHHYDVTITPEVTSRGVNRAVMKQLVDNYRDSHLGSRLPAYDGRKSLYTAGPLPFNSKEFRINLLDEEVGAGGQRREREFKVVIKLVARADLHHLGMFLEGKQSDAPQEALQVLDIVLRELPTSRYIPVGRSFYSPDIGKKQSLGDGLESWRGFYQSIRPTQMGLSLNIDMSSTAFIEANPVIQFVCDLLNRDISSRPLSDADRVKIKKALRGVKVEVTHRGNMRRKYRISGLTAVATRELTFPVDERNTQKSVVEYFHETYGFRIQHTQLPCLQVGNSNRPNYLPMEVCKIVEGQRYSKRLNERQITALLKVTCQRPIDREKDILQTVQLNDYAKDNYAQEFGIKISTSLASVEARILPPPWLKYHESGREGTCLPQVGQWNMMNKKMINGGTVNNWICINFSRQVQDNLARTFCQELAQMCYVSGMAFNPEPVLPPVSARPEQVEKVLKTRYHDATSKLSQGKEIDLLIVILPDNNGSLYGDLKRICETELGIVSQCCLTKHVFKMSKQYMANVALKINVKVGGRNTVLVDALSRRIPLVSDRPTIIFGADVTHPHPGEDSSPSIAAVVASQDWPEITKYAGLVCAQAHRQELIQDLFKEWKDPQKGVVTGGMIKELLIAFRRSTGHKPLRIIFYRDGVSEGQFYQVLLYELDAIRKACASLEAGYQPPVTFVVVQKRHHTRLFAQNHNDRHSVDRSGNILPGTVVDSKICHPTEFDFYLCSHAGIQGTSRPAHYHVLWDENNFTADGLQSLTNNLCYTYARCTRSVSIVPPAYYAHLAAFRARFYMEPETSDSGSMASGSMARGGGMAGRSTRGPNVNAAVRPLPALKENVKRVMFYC
Briefly: affinity purification with mass spectrometry. The following applies: remark: other sources report otherwise.

B1: UP-…1, Q9FJR0 1-1254 (protein)
chain: MDSQQSDLFDTASQPDTVADEYTFLEFNTQGDSEFDYQDFGSPTAWPTPSDSISIADVADRGEGGAAADHHSEASSPSSLSAGAGNGAKVGRGGVGGSGGVSSSSQVDALAAGVGNLNFEETGDDDGFDYGKNDFTEHACKYCGISNPACVVRCNVASCRKWFCNSRGNTSGSHIVNHLVRAKHKEVCLHRDSPLGETILECYNCGCRNVFLLGFISAKTDSVVVLLCRDPCLNVNALKDMNWDLSQWCPLIDDRCFLPWLVKVPSEQEQLRARQISAQQINKIEELWKTNPDATLEDLEKPGVDDEPQPVQPKYEDAYQYQNVFAPLIKLEADYDKMMKESQSKENLTVRWDIGLNKKRVAYFVFPKEENELRLVPGDELRLRYSGDAVHPSWQSVGHVIKLTAQEEVALELRANQGVPIDVNHGFSVDFVWKSTSFDRMQGAMKNFAVDETSVSGYIYHQLLGHEVEAQMVRNTLPRRFGVPGLPELNASQVNAVKSVLQKPISLIQGPPGTGKTVTSAAIVYHMAKQGQGQVLVCAPSNVAVDQLAEKISATGLKVVRLCAKSREAVSSPVEYLTLHYQVRHLDTSEKSELHKLQQLKDEQGELSSSDEKKYKNLKRATEREITQSADVICCTCVGAADLRLSNFRFRQVLIDESTQATEPECLIPLVLGVKQVVLVGDHCQLGPVIMCKKAARAGLAQSLFERLVTLGIKPIRLQVQYRMHPALSEFPSNSFYEGTLQNGVTIIERQTTGIDFPWPVPNRPMFFYVQLGQEEISASGTSYLNRTEAANVEKLVTAFLKSGVVPSQIGVITPYEGQRAYIVNYMARNGSLRQQLYKEIEVASVDSFQGREKDYIILSCVRSNEHQGIGFLNDPRRLNVALTRARYGIVILGNPKVLSKQPLWNGLLTHYKEHECLVEGPLNNLKQSMVQFQKPRKIYNDRRLFYGGGAGMIGNDNFGSGNPNADRRGSRGRAGGSYLPSGPPNGARPGLHPAGYPIPRVPLSPFPGGPPSQPYAIPTRGPVGAVPHAPQPGNHGFGAGRGTSVGGHLPHQQATQHNVGTIGPSLNFPLDSPNSQPSPGGPLSQPGYGSQAFRDGFSMGGISQDFLADDIKSQGSHDPYNMADFATQASPGGFAVDYATQGAHGAFPGNFMNQNSQGGYSRFSGINDFMSQEYMAHGGQGLFTQAGFIDSSQDDGQQNPYGVNNPNLQSQGLPNSLYSQPFAHYNTQPLNLSGPQQSQPNQSSQNPKHPYNG
Take B1: the binding result is given as “binds”.
